The supplement of paper PMC8728848
Some of the results follow.

Key:
Test in all cases: glycan array binding signal (z-score within array); higher = stronger binding
Conditions in all cases: glycan notation: IUPAC condensed, linker removed
[1] = molecular target: Fuc(a1-2)[GalNAc(a1-3)]Gal(b1-3)GlcNAc(b1-6)GalNAc
Method in brief: (§1)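 The binding signal is a Z-score computed within each array and averaged over linkers. Arrays of the same protein sequence at different concentrations or buffers were also averaged together. Data originate from 3228 arrays in the Consortium for Functional Glycomics database, kept only where the protein sequence was available.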

[2] = molecular target: Fuc(a1-2)[GalNAc(a1-3)]Gal(b1-4)Glc
Method in brief: as §1

[3] = molecular target: Fuc(a1-2)[GalNAc(a1-3)]Gal(b1-4)GlcNAc
Method in brief: as §1

[4] = molecular target: Fuc(a1-2)[GalNAc(a1-3)]Gal(b1-4)GlcNAc(b1-2)Man
Method in brief: as §1

[5] = molecular target: Fuc(a1-2)[GalNAc(a1-3)]Gal(b1-4)GlcNAc(b1-2)Man(a1-3)[Fuc(a1-2)[GalNAc(a1-3)]Gal(b1-4)GlcNAc(b1-2)Man(a1-6)]Man(b1-4)GlcNAc(b1-4)GlcNAc
Method in brief: as §1

[6] = molecular target: Fuc(a1-2)[GalNAc(a1-3)]Gal(b1-4)GlcNAc(b1-2)Man(a1-3)[Fuc(a1-2)[GalNAc(a1-3)]Gal(b1-4)GlcNAc(b1-2)Man(a1-6)]Man(b1-4)GlcNAc(b1-4)[Fuc(a1-6)]GlcNAc
Method in brief: as §1

[7] = molecular target: Fuc(a1-2)[GalNAc(a1-3)]Gal(b1-4)GlcNAc(b1-3)Gal(b1-4)GlcNAc
Method in brief: as §1

[8] = molecular target: Fuc(a1-2)[GalNAc(a1-3)]Gal(b1-4)GlcNAc(b1-3)Gal(b1-4)GlcNAc(b1-3)Gal(b1-4)GlcNAc
Method in brief: as §1

[9] = molecular target: Fuc(a1-2)[GalNAc(a1-3)]Gal(b1-4)GlcNAc(b1-3)GalNAc
Method in brief: as §1

[10] = molecular target: Fuc(a1-2)[GalNAc(a1-3)]Gal(b1-4)GlcNAc(b1-3)[Fuc(a1-2)[GalNAc(a1-3)]Gal(b1-4)GlcNAc(b1-6)]GalNAc
Method in brief: as §1

[11] = molecular target: Fuc(a1-2)[GalNAc(a1-3)]Gal(b1-4)GlcNAc(b1-6)GalNAc
Method in brief: as §1

[12] = molecular target: Fuc(a1-2)[GalNAc(a1-3)]Gal(b1-4)[Fuc(a1-3)]GlcNAc
Method in brief: as §1

[13] = molecular target: Fuc(a1-2)[GalNAc(a1-3)]Gal(b1-4)[Fuc(a1-3)]GlcNAc(b1-3)GalNAc
Method in brief: as §1

[14] = molecular target: Fuc(a1-2)[GalNAc(a1-4)]Gal(b1-4)GlcNAc
Method in brief: as §1

[15] = molecular target: Fuc(a1-2)[GalNAc(b1-3)]Gal
Method in brief: as §1

Fuc(a1-3)GlcNAc = molecular target: Fuc(a1-3)GlcNAc
Method in brief: as §1

[16] = molecular target: Fuc(a1-3)[Gal(b1-4)]Glc6S
Method in brief: as §1

[17] = molecular target: Fuc(a1-3)[Gal(b1-4)]GlcNAc
Method in brief: as §1

[18] = molecular target: Fuc(a1-3)[Gal(b1-4)]GlcNAc(b1-2)Man
Method in brief: as §1

[19] = molecular target: Fuc(a1-3)[Gal(b1-4)]GlcNAc(b1-2)Man(a1-3)[Fuc(a1-3)[Gal(b1-4)]GlcNAc(b1-2)Man(a1-6)]Man(b1-4)GlcNAc(b1-4)GlcNAc
Method in brief: as §1

[20] = molecular target: Fuc(a1-3)[Gal(b1-4)]GlcNAc(b1-2)Man(a1-3)[Fuc(a1-3)[Gal(b1-4)]GlcNAc(b1-2)Man(a1-6)]Man(b1-4)GlcNAc(b1-4)[Fuc(a1-6)]GlcNAc
Method in brief: as §1

[21] = molecular target: Fuc(a1-3)[Gal(b1-4)]GlcNAc(b1-3)Gal(b1-3)[Fuc(a1-4)]GlcNAc
Method in brief: as §1

[22] = molecular target: Fuc(a1-3)[Gal(b1-4)]GlcNAc(b1-3)Gal(b1-4)[Fuc(a1-3)]GlcNAc
Method in brief: as §1

[23] = molecular target: Fuc(a1-3)[Gal(b1-4)]GlcNAc(b1-3)Gal(b1-4)[Fuc(a1-3)]GlcNAc(b1-3)Gal(b1-4)[Fuc(a1-3)]GlcNAc
Method in brief: as §1

[24] = molecular target: Fuc(a1-3)[Gal(b1-4)]GlcNAc(b1-3)GalNAc
Method in brief: as §1

[25] = molecular target: Fuc(a1-3)[Gal(b1-4)]GlcNAc(b1-6)GalNAc
Method in brief: as §1

[26] = molecular target: Fuc(a1-3)[Gal(b1-4)]GlcNAc(b1-6)[Gal(b1-3)GlcNAc(b1-3)]Gal(b1-4)Glc
Method in brief: as §1

[27] = molecular target: Fuc(a1-3)[Gal(b1-4)]GlcNAc6S
Method in brief: as §1

[28] = molecular target: Fuc(a1-3)[Gal3S(b1-4)]Glc
Method in brief: as §1

[29] = molecular target: Fuc(a1-3)[Gal3S(b1-4)]GlcNAc
Method in brief: as §1

[30] = molecular target: Fuc(a1-3)[Gal3S(b1-4)]GlcNAc6S
Method in brief: as §1

[31] = molecular target: Fuc(a1-3)[GalNAc(b1-4)]GlcNAc
Method in brief: as §1

[32] = molecular target: Fuc(a1-3)[GalNAc(b1-4)]GlcNAc6S
Method in brief: as §1

Fuc(a1-4)GlcNAc = molecular target: Fuc(a1-4)GlcNAc
Method in brief: as §1

Fuc(b1-3)GlcNAc = molecular target: Fuc(b1-3)GlcNAc
Method in brief: as §1

Gal(a1-2)Gal = molecular target: Gal(a1-2)Gal
Method in brief: as §1

Gal(a1-3)Gal = molecular target: Gal(a1-3)Gal
Method in brief: as §1

B1: Epa3to2 (Candida glabrata) (protein)
chain: MGSSHHHHHHSSGLVPRGSHMKRELSSQNPFGYPIGCSPQDVAIIPGLTMELYSYPIVSGTPPNCYDASYVDPEYPRTGYLKRKMVGKSTGVTGNLNYKYSVEKACMVKYGNLPAGYNYNEPLTVSNFTMILYGYFKAQTTGLHTFFVNADDLLYINFGAGNAFDCCKREDSKTKLGEYVAYDIWHVDSSKNKVSLFLEKDLYYPIRMFFNNRDNNSSLDLSFSVNGATDQISDFSGYLYSVPDQPDTCPAHIGYDTTCR
glycan array binding signal (z-score) [1]: -1.41
glycan array binding signal (z-score) [2]: -0.807
glycan array binding signal (z-score) [3]: 0.658
glycan array binding signal (z-score) [4]: -0.869
glycan array binding signal (z-score) [5]: -0.503
glycan array binding signal (z-score) [6]: 0.837
glycan array binding signal (z-score) [7]: -0.77
glycan array binding signal (z-score) [8]: 0.839
glycan array binding signal (z-score) [9]: -0.995
glycan array binding signal (z-score) [10]: -0.064
glycan array binding signal (z-score) [11]: 0.299
glycan array binding signal (z-score) [12]: 0.989
glycan array binding signal (z-score) [13]: -0.765
glycan array binding signal (z-score) [14]: -1.66
glycan array binding signal (z-score) [15]: 1.21
glycan array binding signal (z-score) (Fuc(a1-3)GlcNAc): 0.35
glycan array binding signal (z-score) [16]: 0.316
glycan array binding signal (z-score) [17]: -0.224
glycan array binding signal (z-score) [18]: -1.12
glycan array binding signal (z-score) [19]: -0.606
glycan array binding signal (z-score) [20]: -0.166
glycan array binding signal (z-score) [21]: -1.04
glycan array binding signal (z-score) [22]: 1.3
glycan array binding signal (z-score) [23]: -0.979
glycan array binding signal (z-score) [24]: 1.52
glycan array binding signal (z-score) [25]: -1.35
glycan array binding signal (z-score) [26]: 0.768
glycan array binding signal (z-score) [27]: 1.03
glycan array binding signal (z-score) [28]: 0.878
glycan array binding signal (z-score) [29]: -0.386
glycan array binding signal (z-score) [30]: 1.15
glycan array binding signal (z-score) [31]: 0.716
glycan array binding signal (z-score) [32]: -0.7
glycan array binding signal (z-score) (Fuc(a1-4)GlcNAc): 1.4
glycan array binding signal (z-score) (Fuc(b1-3)GlcNAc): -0.719
glycan array binding signal (z-score) (Gal(a1-2)Gal): -0.962
glycan array binding signal (z-score) (Gal(a1-3)Gal): 0.6
